According to paper PMC3695940:
These are yes or no findings as the source states them, for the method shown. A result given as binding can be weak or reduced; the word gives no strength. Where a sequence is shown, tags or fusion partners need not be part of it.

Experiments:
[1] = biological target: T1, recombinant EhCFIm25 protein (25 kDa subunit of Cleavage Factor Im of Entamoeba histolytica) (Entamoeba histolytica) (UniProt C4M2T1); assay: far-Western; purified rEhCFIm25 (50 ug) after 10% SDS-PAGE on nitrocellulose; incubated 4 h at room temperature with rEhPAP (50 ug/ml) in 200 mM NaCl - Tween 5%; detected with mouse anti-EhPAP antibodies; both purified
T1 sequence: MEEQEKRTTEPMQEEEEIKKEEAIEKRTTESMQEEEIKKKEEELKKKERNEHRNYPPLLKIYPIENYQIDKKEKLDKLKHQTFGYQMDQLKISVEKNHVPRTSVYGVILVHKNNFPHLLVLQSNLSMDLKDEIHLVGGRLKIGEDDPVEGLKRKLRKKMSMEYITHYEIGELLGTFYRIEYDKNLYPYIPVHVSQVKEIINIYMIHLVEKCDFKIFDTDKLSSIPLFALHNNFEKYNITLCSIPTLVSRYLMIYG

[2] = biological target: recombinant EhPAP protein (poly(A) polymerase of Entamoeba histolytica) (Entamoeba histolytica); assay: far-Western; purified rEhPAP (50 ug) after SDS-PAGE on nitrocellulose; incubated with purified rEhCFIm25 in the same conditions (200 mM NaCl - Tween 5%); detected with rabbit anti-EhCFIm25 antibodies; both purified

recombinant EhPAP protein (poly(A) polymerase of Entamoeba histolytica) (enzyme)
binding [1]: binds

B1: recombinant EhCFIm25 protein (25 kDa subunit of Cleavage Factor Im of Entamoeba histolytica) (protein, UniProt C4M2T1 1-255)
chain: MEEQEKRTTEPMQEEEEIKKEEAIEKRTTESMQEEEIKKKEEELKKKERNEHRNYPPLLKIYPIENYQIDKKEKLDKLKHQTFGYQMDQLKISVEKNHVPRTSVYGVILVHKNNFPHLLVLQSNLSMDLKDEIHLVGGRLKIGEDDPVEGLKRKLRKKMSMEYITHYEIGELLGTFYRIEYDKNLYPYIPVHVSQVKEIINIYMIHLVEKCDFKIFDTDKLSSIPLFALHNNFEKYNITLCSIPTLVSRYLMIYG
binding [2]: binds
